Assay results taken from patent EP2298778A1, “IMIDAZOTHIAZOLE DERIVATIVE HAVING 4,7-DIAZASPIROÝ2.5¨OCTANE RING STRUCTURE” (Daiichi Sankyo Company, Limited, priority 2008, dated 2009).
Some entries share one result that the patent states for a list of compounds.

Protein sequences, listed by entry. Tags and fused reporters are not part of them. Residues count along the entry.
UniProt Q00987, 25-108 L33E, species assumed: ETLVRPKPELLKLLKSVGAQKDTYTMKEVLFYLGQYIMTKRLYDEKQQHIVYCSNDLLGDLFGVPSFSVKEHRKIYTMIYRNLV

Target: T1, Mdm2/p53 binding (His-p53 and GST-Mdm2) (Homo sapiens, UniProt Q00987, L33E)
T1 construct: a Mdm2 partial protein, having Mdm2 amino acids at positions 25 to 108 with leucine residue 33 substituted by glutamic acid
Assay: Mdm2/p53 binding assay (HTRF, time-resolved fluorescence)
Conditions: His-p53 (aa 1 to 132) and GST-Mdm2 (aa 25 to 108, L33E), 6.25 nM each; 25°C for 1 hour; sigmoid fitting; read-out: Mdm2/p53 binding inhibiting activity of IC50

CC(C)C1=C(C(=O)N2[C@H](C)CC[C@H]2C(=O)N2CCNC3(CC3)C2)SC2=N[C@@](C)(c3ccc(Cl)c(N)c3)[C@@H](c3ccc(Cl)c(F)c3)N21 [Example 27, 2-chloro-5-[(5R,6S)-5-(4-chloro-3-fluorophenyl)-2-{[(2S,5R)-2-(4,7-diazaspiro[2.5]oct-7-ylcarbonyl)-5-methylpyrrolidin-1-yl]carbonyl}-3-isopropyl-6-methyl-5,6-dihydroimidazo[2,1-b][1,3]thiazol-6-yl]aniline]
IC50: < 200 nM

CC(C)C1=C(C(=O)N2[C@H](C)CC[C@H]2C(=O)N2CCNC3(CC3)C2)SC2=N[C@@](C)(c3ccc(C#N)cc3)[C@@H](c3ccc(Cl)cc3)N21 [Example 28, 4-[(5R,6S)-5-(4-chlorophenyl)-2-{[(2S,5R)-2-(4,7-diazaspiro[2.5]oct-7-ylcarbonyl)-5-methylpyrrolidin-1-yl]carbonyl}-3-isopropyl-6-methyl-5,6-dihydroimidazo[2,1-b][1,3]thiazol-6-yl]benzonitrile]
IC50: < 200 nM

CC(C)C1=C(C(=O)N2[C@H](C)CC[C@H]2C(=O)N2CCN(C)C3(CC3)C2)SC2=N[C@@](C)(c3ccc(C#N)cc3)[C@@H](c3ccc(Cl)cc3)N21 [Example 29, 4-[(5R,6S)-5-(4-chlorophenyl)-3-isopropyl-6-methyl-2-({(2R,5S)-2-methyl-5-[(4-methyl-4,7-diazaspiro[2.5]oct-7-yl)carbonyl]pyrrolidin-1-yl}carbonyl)-5,6-dihydroimidazo[2,1-b][1,3]thiazol-6-yl]benzonitrile]
IC50: < 200 nM

CC(C)C1=C(C(=O)N2[C@H](C)CC[C@H]2C(=O)N2CCNC3(CC3)C2)SC2=N[C@@](C)(c3ccc(C#N)cc3)[C@@H](c3ccc(Cl)c(F)c3)N21 [Example 30, 4-[(5R,6S)-5-(4-chloro-3-fluorophenyl)-2-{[(2S,5R)-2-(4,7-diazaspiro[2.5]oct-7-ylcarbonyl)-5-methylpyrrolidin-1-yl]carbonyl}-3-isopropyl-6-methyl-5,6-dihydroimidazo[2,1-b][1,3]thiazol-6-yl]benzonitrile]
IC50: < 200 nM

CC(C)C1=C(C(=O)N2[C@H](C)CC[C@H]2C(=O)N2CCNC3(CC3)C2)SC2=N[C@@](C)(c3ccc(Cl)nc3)[C@@H](c3ccc(Cl)c(Cl)c3)N21 [Example 31, 7-[(5R)-1-{[(5R,6S)-6-(6-chloropyridin-3-yl)-5-(3,4-dichlorophenyl)-3-isopropyl-6-methyl-5,6-dihydroimidazo[2,1-b][1,3]thiazol-2-yl]carbonyl}-5-methyl-L-prolyl]-4,7-diazaspiro [2.5] octane]
IC50: < 200 nM

CC[C@@H]1CC[C@@H](C(=O)N2CCNC3(CC3)C2)N1C(=O)C1=C(C(C)C)N2C(=N[C@@](C)(c3ccc(Cl)nc3)[C@H]2c2ccc(Cl)c(F)c2)S1 [Example 32, 7-[(5R)-1-{[(5R,6S)-5-(4-chloro-3-fluorophenyl)-6-(6-chloropyridin-3-yl)-3-isopropyl-6-methyl-5,6-dihydroimidazo[2,1-b][1,3]thiazol-2-yl]carbonyl}-5-ethyl-L-prolyl]-4,7-diazaspiro[2.5]octane]
IC50: < 200 nM

CC[C@@H]1CC[C@@H](C(=O)N2CCN(C)C3(CC3)C2)N1C(=O)C1=C(C(C)C)N2C(=N[C@@](C)(c3ccc(Cl)nc3)[C@H]2c2ccc(Cl)c(F)c2)S1 [Example 33, 7-[(5R)-1-{[(5R,6S)-5-(4-chloro-3-fluorophenyl)-6-(6-chloropyridin-3-yl)-3-isopropyl-6-methyl-5,6-dihydroimidazo[2,1-b][1,3]thiazol-2-yl]carbonyl}-5-ethyl-L-prolyl]-4-methyl-4,7-diazaspiro[2.5]octane]
IC50: < 200 nM

CC[C@@H]1CC[C@@H](C(=O)N2CCN(C(C)=O)C3(CC3)C2)N1C(=O)C1=C(C(C)C)N2C(=N[C@@](C)(c3ccc(Cl)nc3)[C@H]2c2ccc(Cl)c(F)c2)S1 [Example 34, 4-acetyl-7-[(5R)-1-{[(5R,6S)-5-(4-chloro-3-fluorophenyl)-6-(6-chloropyridin-3-yl)-3-isopropyl-6-methyl-5,6-dihydroimidazo[2,1-b][1,3]thiazol-2-yl]carbonyl}-5-ethyl-L-prolyl]-4,7-diazaspiro[2.5]octane]
IC50: < 200 nM

CC(C)C1=C(C(=O)N2CCC[C@H]2C(=O)N2CCNC3(CC3)C2)SC2=N[C@@](C)(c3ccc(Cl)cc3)[C@@H](c3ccc(Cl)cc3)N21 [Example 35, 7-(1-{[(5R,6S)-5,6-bis(4-chlorophenyl)-3-isopropyl-6-methyl-5,6-dihydroimidazo[2,1-b][1,3]thiazol-2-yl]carbonyl}-L-prolyl)-4,7-diazaspiro[2.5]octane]
IC50: < 200 nM

CC(C)C1=C(C(=O)N2CCC[C@H]2C(=O)N2CCN(C)C3(CC3)C2)SC2=N[C@@](C)(c3ccc(Cl)cc3)[C@@H](c3ccc(Cl)cc3)N21 [Example 36, 7-(1-{[(5R,6S)-5,6-bis(4-chlorophenyl)-3-isopropyl-6-methyl-5,6-dihydroimidazo[2,1-b][1,3]thiazol-2-yl]carbonyl}-L-prolyl)-4-methyl-4,7-diazaspiro[2.5]octane]
IC50: < 200 nM

CC(C)C1=C(C(=O)N2CCC[C@H]2C(=O)N2CCN(CCO)C3(CC3)C2)SC2=N[C@@](C)(c3ccc(Cl)cc3)[C@@H](c3ccc(Cl)cc3)N21 [Example 37, 2-[7-(1-{[(5R,6S)-5,6-bis(4-chlorophenyl)-3-isopropyl-6-methyl-5,6-dihydroimidazo[2,1-b][1,3]thiazol-2-yl]carbonyl}-L-prolyl)-4,7-diazaspiro[2.5]oct-4-yl]ethanol]
IC50: < 200 nM

CC(C)C1=C(C(=O)N2[C@H](CF)CC[C@H]2C(=O)N2CCNC3(CC3)C2)SC2=N[C@@](C)(c3ccc(Cl)cc3)[C@@H](c3ccc(Cl)cc3)N21 [Example 38, 7-[(5S)-1-{[(5R,6S)-5,6-bis(4-chlorophenyl)-3-isopropyl-6-methyl-5,6-dihydroimidazo[2,1-b][1,3]thiazol-2-yl]carbonyl}-5-(fluoromethyl)-L-prolyl]-4,7-diazaspiro[2.5]octane]
IC50: < 200 nM

CC(C)C1=C(C(=O)N2[C@H](CF)CC[C@H]2C(=O)N2CCN(C)C3(CC3)C2)SC2=N[C@@](C)(c3ccc(Cl)cc3)[C@@H](c3ccc(Cl)cc3)N21 [Example 39, 7-[(5S)-1-{[(5R,6S)-5,6-bis(4-chlorophenyl)-3-isopropyl-6-methyl-5,6-dihydroimidazo[2,1-b][1,3]thiazol-2-yl]carbonyl}-5-(fluoromethyl)-L-prolyl]-4-methyl-4,7-diazaspiro[2.5]octane]
IC50: < 200 nM

CC(C)C1=C(C(=O)N2[C@H](CF)CC[C@H]2C(=O)N2CCNC3(CC3)C2)SC2=N[C@@](C)(c3ccc(Cl)nc3)[C@@H](c3ccc(Cl)c(F)c3)N21 [Example 40, 7-[(5S)-1-{[(5R,6S)-5-(4-chloro-3-fluorophenyl)-6-(6-chloropyridin-3-yl)-3-isopropyl-6-methyl-5,6-dihydroimidazo[2,1-b][1,3]thiazol-2-yl]carbonyl}-5-(fluoromethyl)-L-prolyl]-4,7-diazaspiro[2.5]octane]
IC50: < 200 nM

CC(C)C1=C(C(=O)N2[C@H](CF)CC[C@H]2C(=O)N2CCN(C)C3(CC3)C2)SC2=N[C@@](C)(c3ccc(Cl)nc3)[C@@H](c3ccc(Cl)c(F)c3)N21 [Example 41, 7-[(5S)-1-{[(5R,6S)-5-(4-chloro-3-fluorophenyl)-6-(6-chloropyridin-3-yl)-3-isopropyl-6-methyl-5,6-dihydroimidazo[2,1-b][1,3]thiazol-2-yl]carbonyl}-5-(fluoromethyl)-L-prolyl]-4-methyl-4,7-diazaspiro[2.5]octane]
IC50: < 200 nM
